These are yes or no findings as the source states them, for the method shown. Binding seen in cells or lysates may run through a third protein. Here binding means that the protein was enriched with, or labelled near, the bait; the list need not be complete. Where a sequence is shown, tags or fusion partners need not be part of it.
T1: HA::degron::RMH-1 (C. elegans) (UniProt P91399)
T1 sequence: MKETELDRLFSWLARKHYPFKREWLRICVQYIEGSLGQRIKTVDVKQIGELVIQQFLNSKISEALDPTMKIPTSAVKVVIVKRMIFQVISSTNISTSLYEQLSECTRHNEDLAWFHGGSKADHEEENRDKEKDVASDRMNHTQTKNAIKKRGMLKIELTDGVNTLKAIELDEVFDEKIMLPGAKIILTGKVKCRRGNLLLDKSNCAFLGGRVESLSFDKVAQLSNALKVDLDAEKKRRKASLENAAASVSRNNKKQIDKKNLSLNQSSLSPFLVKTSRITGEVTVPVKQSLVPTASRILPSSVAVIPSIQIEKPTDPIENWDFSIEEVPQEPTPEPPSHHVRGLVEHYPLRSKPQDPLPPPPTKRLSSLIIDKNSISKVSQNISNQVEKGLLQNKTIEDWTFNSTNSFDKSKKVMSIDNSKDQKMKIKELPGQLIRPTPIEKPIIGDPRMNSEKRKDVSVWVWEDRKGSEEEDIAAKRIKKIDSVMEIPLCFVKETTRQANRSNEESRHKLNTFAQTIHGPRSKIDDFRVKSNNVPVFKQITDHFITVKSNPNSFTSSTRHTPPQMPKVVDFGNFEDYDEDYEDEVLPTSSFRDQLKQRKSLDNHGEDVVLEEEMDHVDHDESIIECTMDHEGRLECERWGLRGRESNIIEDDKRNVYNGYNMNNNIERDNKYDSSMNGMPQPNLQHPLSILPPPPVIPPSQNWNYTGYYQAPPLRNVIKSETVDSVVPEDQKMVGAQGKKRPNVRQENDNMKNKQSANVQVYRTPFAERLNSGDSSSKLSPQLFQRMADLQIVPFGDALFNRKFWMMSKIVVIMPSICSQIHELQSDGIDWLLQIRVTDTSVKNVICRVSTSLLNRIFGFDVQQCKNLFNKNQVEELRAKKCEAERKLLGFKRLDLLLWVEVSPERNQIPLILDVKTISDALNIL

B1: RPA-1 (replication protein A) (protein, UniProt Q19537 1-655)
chain: MAAIHINHDVFNKYHTNGKLRLTTGYVQEAIENNGYPGHDGIVQVLKGKVEQGEQLGHAFTFRIRISDGVFQYNALMSADIDDQIKREVEHLVEGTIIALTKFEIYDQGEGAKNCFLIKGYKILSRYHQVLTSPEVKPRSHSGKPDEHKGYRPNIIIEDVWPEAEGMAADYQENMANPPAAKAPKREFGEEASYNRAAAPEATRARAVPPPARRTASNTERGVMPIAMVTPYVSNFKIHGMVSRKEEIRTFPAKNTKVFNFEITDSNGDTIRCTAFNEVAESLYTTITENLSYYLSGGSVKQANKKFNNTGHDYEITLRSDSIIEAGGELLAAPKLILKRVKLGEIAGYAGQLIDVLVVVEKMDPEATEFTSKAGKSLIKREMELIDESGALVRLTLWGDEATKALVDDYVQKVIAFKGVIPREFNGGFSLGTGSATRIISVPEIAGVSELYDWYANVKPTTEVKMMSQAAGGSNEAPRTIAGLQEMQFGKDSDKGDYATVKAMITRVNPTNALYRGCASEGCQKKLVGENGDYRCEKCNKNMNKFKWLYMMQFELSDETGQVYVTAFGDSAAKIVGKSAAELGELHDESPDEYNAIFERLQFVPKMWRLRCKMDSYNEEVRQKMTVYGVDDVNQDKYIENLKQMIEQMQQMSDY
B2: HIM-6 (Bloom helicase) (protein, UniProt O18017 1-988)
chain: MIKNREIEVAPPRRTIQFGGYTFVEPDLNFKAPIFSCCGSIRDPSCEEREEEYIDNGHDEEPPVEVNRIQESTSFDEPVSSPPRYRPSENPGPSSSSYEPGHYSFNEYQQFPSRPQKRLVDPPIVDLDEEPPIVDLDDSFDNFHVGSTSEEVVSGDIAPEEEEEEGHDSFDDFESVPAQPPSKNTLASLQKSDSEIALNQQRHDMHGRFRGFLQDDSEEFSDEVGLLGADMNKELYDTLKSKFGFNQFRHRQKQCILSTLMGHDTFVLMPTGAGKSLCYQLPAVILPGVTVVVSPLRSLIEDQKMKMKELGIGCEALTADLGAPAQEKIYAELGSGNPSIKLLYVTPEKISASGRLNSVFFDLHRRGLLARFVIDEAHCVSQWGHDFRPDYTKLSSLREKYANPPVPIIALTATATPKIVTDARDHLKMQNSKLFISSFVRDNLKYDLIPKAARSLINVVEKMKQLYPGKSGIVYCLSRKECETVQMMLTKAGLSAEVYHAGLNDNLRVSVQRSWIANKFDVICATIAFGMGIDKPDVRFVIHYSLPKSIEGYYQETGRAGRDGMPSYCLMLYSYHDSIRLRRMIEEGNTTTGVRSMHLNNVLQVVAYCENVSVCRRKMLVEHFGEVYDEQSCRNSKTPCDICERQRKNAEAIRLFDVSTDALSILKCLPRMQKATLKYISELYRGALIKKSQEQAMRLGHTKLPFYSKGQGMSEQDALRFVRKLVIEGYIHERLYSVPNQAAAVFAYAELTEAGRDLANGKKTAKVYLHIVTCERKRKNAGLIELSNMNIVSEAQALKERHMVKHGDVFTRCLQDLTHLITAVAESSGLSGPYSIVSREGIEQIAALLPRTNSDLLRIDSMTQIKVTKYGRLIMELLATYWKQVDEREEEEMRNQLDKLKSGEIVMGGFATLQSDPGFPSVPYMKPLGGGGGCRGRGKKRAFSGFSSGRATKKPRATAPSARGKTSGRGGAKPATSLKRNMYPATSM

What follows are molecules tested against T1, HA::degron::RMH-1 (C. elegans) (assay: affinity purification with mass spectrometry; HA-tagged RMH-1 immunoprecipitated on HA magnetic beads from at least 1 mg pooled soluble and insoluble nuclear fractions of worms; buffer D (150 mM KCl, 20 mM Hepes-KOH pH 7.9, 0.2% Triton X-100, 20% glycerol), overnight at 4°C; triplicate, against control).

binding, binds:
TOP-3 (topoisomerase 3) (C. elegans)
B1
B2

Source: paper PMC8318279
